Assay results: PMC6771244, “VSTM2A suppresses colorectal cancer and antagonizes Wnt signaling receptor LRP6” (Theranostics, 2019)
These are yes or no findings as the source states them, for the method shown. Binding seen in cells or lysates may run through a third protein. Some results given as binding are weak or reduced against the parent protein; the word gives no strength. For some assays here: Where a sequence is shown, tags or fusion partners need not be part of it. Each block holds one binder with its values, some of them ahead of it.

The chains behind the UniProt entries cited, without tags or fusion partners. Residues count along the entry.
UniProt O75581, residues 20-1613: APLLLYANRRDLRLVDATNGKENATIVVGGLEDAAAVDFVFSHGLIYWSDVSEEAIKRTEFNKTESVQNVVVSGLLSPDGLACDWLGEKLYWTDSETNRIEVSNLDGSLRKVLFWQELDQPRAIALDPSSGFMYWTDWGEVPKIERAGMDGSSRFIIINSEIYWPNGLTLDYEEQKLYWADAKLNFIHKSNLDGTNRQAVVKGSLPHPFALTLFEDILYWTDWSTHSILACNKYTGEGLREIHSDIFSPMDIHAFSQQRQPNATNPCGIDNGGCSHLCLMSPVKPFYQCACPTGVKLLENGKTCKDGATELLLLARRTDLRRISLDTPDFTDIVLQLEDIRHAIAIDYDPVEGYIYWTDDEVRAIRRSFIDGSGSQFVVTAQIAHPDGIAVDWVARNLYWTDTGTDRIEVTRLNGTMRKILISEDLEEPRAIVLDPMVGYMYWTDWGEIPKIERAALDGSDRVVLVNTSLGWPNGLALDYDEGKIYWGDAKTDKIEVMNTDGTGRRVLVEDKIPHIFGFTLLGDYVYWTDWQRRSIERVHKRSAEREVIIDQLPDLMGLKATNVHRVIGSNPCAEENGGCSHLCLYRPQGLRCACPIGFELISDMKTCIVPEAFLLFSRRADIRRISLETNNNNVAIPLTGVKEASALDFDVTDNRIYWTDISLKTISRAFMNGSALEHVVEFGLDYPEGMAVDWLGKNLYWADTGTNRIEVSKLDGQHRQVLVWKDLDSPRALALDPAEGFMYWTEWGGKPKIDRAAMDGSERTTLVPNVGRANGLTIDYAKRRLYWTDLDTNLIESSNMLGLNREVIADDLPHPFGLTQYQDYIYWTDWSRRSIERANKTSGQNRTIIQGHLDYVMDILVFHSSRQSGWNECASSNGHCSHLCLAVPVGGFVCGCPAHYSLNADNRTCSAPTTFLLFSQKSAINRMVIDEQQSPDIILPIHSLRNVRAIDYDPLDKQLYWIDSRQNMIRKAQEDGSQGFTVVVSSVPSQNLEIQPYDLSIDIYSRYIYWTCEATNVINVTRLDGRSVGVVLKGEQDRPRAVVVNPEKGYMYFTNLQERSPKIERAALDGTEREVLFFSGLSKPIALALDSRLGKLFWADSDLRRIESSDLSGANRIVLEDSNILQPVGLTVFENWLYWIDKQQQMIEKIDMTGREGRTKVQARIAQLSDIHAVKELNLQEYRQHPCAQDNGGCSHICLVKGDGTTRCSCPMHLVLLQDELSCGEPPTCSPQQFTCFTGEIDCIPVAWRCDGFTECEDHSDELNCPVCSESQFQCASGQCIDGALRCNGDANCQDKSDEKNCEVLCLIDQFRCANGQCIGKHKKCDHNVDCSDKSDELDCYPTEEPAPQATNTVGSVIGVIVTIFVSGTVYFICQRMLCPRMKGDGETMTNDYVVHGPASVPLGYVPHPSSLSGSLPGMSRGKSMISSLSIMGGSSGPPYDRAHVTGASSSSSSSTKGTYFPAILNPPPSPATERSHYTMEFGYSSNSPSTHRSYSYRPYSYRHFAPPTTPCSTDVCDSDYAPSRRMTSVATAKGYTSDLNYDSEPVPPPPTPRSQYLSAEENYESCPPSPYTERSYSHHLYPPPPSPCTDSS

Columns and labels:
[1] = molecular target: endogenous LRP6 (co-IP of Figure 4A, third and fourth panels) (UniProt O75581); assay: co-IP; reciprocal IP using recombinant human VSTM2A His-tag and endogenous LRP6; the precipitated partner and the cell line are not told; only the binder purified
[2] = molecular target: HA-tagged LRP6, full length (human) (UniProt O75581); assay: co-IP; immunoprecipitation and immunoblot of full length LRP6 and VSTM2A C terminal deletion (Figure 4J)

binding [1]: binds
B1: Recombinant Human VSTM2A His-tag Protein (R&D, 10037-VT) (ligand, UniProt Q8TAG5 25-236, looked up)
chain: SQAKFTEFPRNVTATEGQNVEMSCAFQSGSASVYLEIQWWFLRGPEDLDPGAEGAGAQVELLPDRDPDSDGTKISTVKVQGNDISHKLQISKVRKKDEGLYECRVTDANYGELQEHKAQAYLKVNANSHARRMQAFEASPMWLQDMKPRKNVSAAIPSSIHGSANQRTHSTSSPQVVAKIPKQSPQSGARIATSHGLSVLLLVCGFVKGALL
notes: human VSTM2A, commercial recombinant protein; also called recombinant VSTM2A; VSTM2A pure protein; source: bought: R&D

binding [2]: binds
B2: VSTM2A Δ144-240 (VSTM2A IgV domain) (domain or fragment, UniProt Q8TAG5 25-143)
chain: SQAKFTEFPRNVTATEGQNVEMSCAFQSGSASVYLEIQWWFLRGPEDLDPGAEGAGAQVELLPDRDPDSDGTKISTVKVQGNDISHKLQISKVRKKDEGLYECRVTDANYGELQEHKAQ
